Assay results taken from the supplement of paper PMC9233669.
This sample is rich in variants without activity.

Columns and labels:
biotinyl-Trp-oxazolone = experiment: self-aminoacylation, catalytic enhancement (BWO) (fold over background); higher = more active; k-Seq, kA / k0A0; sequences stand for … in GGGAAUGGAUCCACAUCUACGAAUUC…UUCACUGCAGACUUGACGAAGCUG
Procedure, shortened: (§1)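 The uncatalyzed rate is the low-activity peak of a bimodal Gaussian fit, and catalytic enhancement is median kA divided by it. The kA values came from pseudo-first-order fits, with 1000 bootstraps, of per-sequence fraction reacted measured by streptavidin capture, triplicate qPCR and Illumina sequencing. Mutagenized RNA pools with a 21-nt variable region (0.43 μM) were reacted with each biotinyl-aminoacyl-oxazolone at 2–1250 μM in 50 μL HEPES/NaCl/KCl/MgCl2/CaCl2 buffer with 5% acetonitrile, pH 6.9–7.0, for 90 minutes at room temperature.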

biotinyl-Leu-oxazolone = experiment: self-aminoacylation, catalytic enhancement (BLO) (fold over background); higher = more active; k-Seq, kA / k0A0; sequences stand for … in GGGAAUGGAUCCACAUCUACGAAUUC…UUCACUGCAGACUUGACGAAGCUG
Procedure, shortened: as §1

biotinyl-Val-oxazolone = experiment: self-aminoacylation, catalytic enhancement (BVO) (fold over background); higher = more active; k-Seq, kA / k0A0; sequences stand for … in GGGAAUGGAUCCACAUCUACGAAUUC…UUCACUGCAGACUUGACGAAGCUG
Procedure, shortened: as §1

biotinyl-Ile-oxazolone = experiment: self-aminoacylation, catalytic enhancement (BIO) (fold over background); higher = more active; k-Seq, kA / k0A0; sequences stand for … in GGGAAUGGAUCCACAUCUACGAAUUC…UUCACUGCAGACUUGACGAAGCUG
Procedure, shortened: as §1

biotinyl-Met-oxazolone = experiment: self-aminoacylation, catalytic enhancement (BMO) (fold over background); higher = more active; k-Seq, kA / k0A0; sequences stand for … in GGGAAUGGAUCCACAUCUACGAAUUC…UUCACUGCAGACUUGACGAAGCUG
Procedure, shortened: as §1

biotinyl-Phe-oxazolone = experiment: self-aminoacylation, catalytic enhancement (BFO) (fold over background); higher = more active; k-Seq, kA / k0A0; sequences stand for … in GGGAAUGGAUCCACAUCUACGAAUUC…UUCACUGCAGACUUGACGAAGCUG
Procedure, shortened: as §1

Row | Sequence | self-aminoacylation (biotinyl-Trp-oxazolone) | self-aminoacylation (biotinyl-Leu-oxazolone) | self-aminoacylation (biotinyl-Val-oxazolone) | self-aminoacylation (biotinyl-Ile-oxazolone) | self-aminoacylation (biotinyl-Met-oxazolone) | self-aminoacylation (biotinyl-Phe-oxazolone)
1 | CCACACUUCAAGCAAGCGGUU [Fam1B.1 aminoacylation ribozyme variant] | 1.4 | 1.38 | 1.88 | 1.56 | 1.21 | 0.999
2 | CCACACUUCAAGCAAUCGGAC [Fam1B.1 aminoacylation ribozyme variant] | 1.09 | 0.63 | 0.872 | 0.85 | 0.694 | 1.79
3 | CCACACUUCAAGCAAUCGGUA [Fam1B.1 aminoacylation ribozyme variant] | 1.1 | 0.872 | 1.01 | 0.961 | 0.886 | 1.36
4 | CCACACUUCAAGCAAUCUGUA [Fam1B.1 aminoacylation ribozyme variant] | 0.232 | 0.426 | 0.622 | 0.504 | 0.434 | 0.833
5 | CCACACUUCAAGCAAUGGAUC [Fam1B.1 aminoacylation ribozyme variant] | 0.369 | 0.438 | 0.611 | 0.56 | 0.538 | 1.04
6 | CCACACUUCAAGCACUCGGAC [Fam1B.1 aminoacylation ribozyme variant] | 1.29 | 1.05 | 1.16 | 1.23 | 1.13 | 0.879
7 | CCACACUUCAAGCAGACGGUC [Fam1B.1 aminoacylation ribozyme variant] | 0.539 | 0.605 | 0.57 | 0.686 | 0.607 | 0.719
8 | CCACACUUCAAGCAGUCGGUA [Fam1B.1 aminoacylation ribozyme variant] | 1.02 | 1.03 | 1.08 | 1.04 | 0.707 | 0.579
9 | CCACACUUCAAGCGGUCGGUC [Fam1B.1 aminoacylation ribozyme variant] | 0.788 | 0.919 | 1.14 | 1.07 | 1.02 | 1.43
10 | CCACACUUCAAGCUAUCGGCC [Fam1B.1 aminoacylation ribozyme variant] | 1.81 | 1.82 | 1.51 | 1.62 | 1.7 | 0.862
11 | CCACACUUCAAGGAAUCGGAC [Fam1B.1 aminoacylation ribozyme variant] | 0.8 | 0.932 | 0.878 | 1 | 1 | 0.997
12 | CCACACUUCAAGUAAUCGAUC [Fam1B.1 aminoacylation ribozyme variant] | 0.837 | 0.444 | 0.622 | 0.547 | 0.464 | 1.21
13 | CCACACUUCAAGUAAUCGGUA [Fam1B.1 aminoacylation ribozyme variant] | 0.708 | 1.17 | 0.929 | 1.01 | 1.09 | 0.884
14 | CCACACUUCAAUCAUUCGGUC [Fam1B.1 aminoacylation ribozyme variant] | 0.733 | 0.893 | 1.2 | 1.01 | 1.14 | 0.919
15 | CCACACUUCACCCAAUCGGUC [Fam1B.1 aminoacylation ribozyme variant] | 0.548 | 0.888 | 1.14 | 0.951 | 0.946 | 0.803
16 | CCACACUUCACGCAAUCCGUC [Fam1B.1 aminoacylation ribozyme variant] | 1.44 | 0.948 | 1.33 | 1.19 | 1.1 | 0.586
17 | CCACACUUCACGCACUCGGUC [Fam1B.1 aminoacylation ribozyme variant] | 0.82 | 1.43 | 1.43 | 1.22 | 1.27 | 0.401
18 | CCACACUUCAGGAAAUCGGUC [Fam1B.1 aminoacylation ribozyme variant] | 1.09 | 1.49 | 1.13 | 1.4 | 1.22 | 1.28
19 | CCACACUUCCAGCAAUUGGUC [Fam1B.1 aminoacylation ribozyme variant] | 0.881 | 0.632 | 0.958 | 0.943 | 0.596 | 0.778
20 | CCACACUUCGAGCAAACGGUC [Fam1B.1 aminoacylation ribozyme variant] | 0.57 | 0.632 | 0.655 | 0.678 | 0.663 | 0.648
21 | CCACACUUCGAGCAACCGGUC [Fam1B.1 aminoacylation ribozyme variant] | 1.26 | 1.55 | 1.33 | 1.15 | 0.919 | 0.552
22 | CCACACUUCGAGCAAUCGGUC [Fam1B.1 aminoacylation ribozyme variant] | 1.05 | 0.92 | 1.17 | 0.932 | 0.883 | 1.41
23 | CCACACUUCGAGCAAUCGGUU [Fam1B.1 aminoacylation ribozyme variant] | 1.65 | 1.1 | 1.63 | 1.41 | 1.83 | 0.768
24 | CCACACUUCGAGCAAUCUGUC [Fam1B.1 aminoacylation ribozyme variant] | 0.388 | 0.303 | 0.614 | 0.413 | 0.486 | 0.369
25 | CCACACUUCUAACAAUCGGUC [Fam1B.1 aminoacylation ribozyme variant] | 0.618 | 0.69 | 0.798 | 0.797 | 0.619 | 0.614
26 | CCACACUUCUAGCAAUCCGUC [Fam1B.1 aminoacylation ribozyme variant] | 0.642 | 0.746 | 1.03 | 0.93 | 0.695 | 0.71

Row | Sequence | self-aminoacylation (biotinyl-Trp-oxazolone) | self-aminoacylation (biotinyl-Leu-oxazolone) | self-aminoacylation (biotinyl-Val-oxazolone) | self-aminoacylation (biotinyl-Ile-oxazolone) | self-aminoacylation (biotinyl-Met-oxazolone) | self-aminoacylation (biotinyl-Phe-oxazolone)
27 | CCACACUUCUAGCAAUUGGUC [Fam1B.1 aminoacylation ribozyme variant] | 0.401 | 0.636 | 0.687 | 0.611 | 0.638 | 0.539
28 | CCACACUUGAAGAAAUCGGUC [Fam1B.1 aminoacylation ribozyme variant] | 1.7 | 1.24 | 1.24 | 1.03 | 1.17 | 0.61
29 | CCACACUUUAAGCAAGCGGUC [Fam1B.1 aminoacylation ribozyme variant] | 0.593 | 0.719 | 0.946 | 0.958 | 0.735 | 0.848
30 | CCACACUUUAAGCAAUCGGUU [Fam1B.1 aminoacylation ribozyme variant] | 1.82 | 0.792 | 1.04 | 1.06 | 1.06 | 1.04
31 | CCACACUUUAUGCAAUCGGUC [Fam1B.1 aminoacylation ribozyme variant] | 0.554 | 0.637 | 0.79 | 0.758 | 0.559 | 0.887
32 | CCACAGUUCAAGCAAACGGUC [Fam1B.1 aminoacylation ribozyme variant] | 0.765 | 0.961 | 0.859 | 0.798 | 0.757 | 0.991
33 | CCACAGUUCAAGCAAUCGGUU [Fam1B.1 aminoacylation ribozyme variant] | 1.87 | 1.61 | 1.82 | 1.7 | 1.52 | 1.25
34 | CCACAGUUCAAUCAAUCGGUC [Fam1B.1 aminoacylation ribozyme variant] | 2.08 | 0.881 | 0.96 | 0.806 | 0.905 | 2.95
35 | CCACAUUUCAAGCAAUAGGUC [Fam1B.1 aminoacylation ribozyme variant] | 0.705 | 0.865 | 1.15 | 1.06 | 0.761 | 1.55
36 | CCACAUUUCAAGCAAUCCGUC [Fam1B.1 aminoacylation ribozyme variant] | 0.987 | 1.06 | 1.39 | 1.4 | 1.22 | 1.25
37 | CCACAUUUCCAGCAAUCGGUC [Fam1B.1 aminoacylation ribozyme variant] | 1.23 | 2.15 | 2.04 | 2.12 | 1.64 | 1.26
38 | CCACCCUUCAAGCAACCGGUC [Fam1B.1 aminoacylation ribozyme variant] | 1.86 | 1.34 | 1.65 | 1.11 | 0.788 | 0.914
39 | CCACCCUUCAAGCAAUCCGUC [Fam1B.1 aminoacylation ribozyme variant] | 0.907 | 0.983 | 1.53 | 1.18 | 0.893 | 0.978
40 | CCACCCUUCAAGCAAUCGAUC [Fam1B.1 aminoacylation ribozyme variant] | 0.612 | 0.535 | 0.796 | 0.557 | 0.499 | 1.06
41 | CCACCCUUCAAGCAAUCUGUC [Fam1B.1 aminoacylation ribozyme variant] | 0.452 | 0.408 | 0.579 | 0.429 | 0.397 | 0.649
42 | CCACCCUUCACGCAAUCGGUC [Fam1B.1 aminoacylation ribozyme variant] | 1.75 | 1.2 | 1.81 | 1.78 | 1.4 | 1.41
43 | CCACUCUACAAGCAAUCGGUC [Fam1B.1 aminoacylation ribozyme variant] | 0.709 | 0.957 | 1.1 | 1.05 | 0.822 | 0.779
44 | CCACUCUUCAAGCAAUCGCUC [Fam1B.1 aminoacylation ribozyme variant] | 1.08 | 1.68 | 1.77 | 1.41 | 1.69 | 0.837
45 | CCACUCUUCAAGCAGUCGGUC [Fam1B.1 aminoacylation ribozyme variant] | 1.28 | 1.24 | 1.1 | 1.04 | 1.03 | 1.07
46 | CCACUUCAAACAAUAGGUCUG [Fam1A.1 aminoacylation ribozyme variant] | 0.52 | 0.839 | 0.77 | 0.822 | 0.657 | 0.86
47 | CCACUUCAUACAAUCGGUCUG [Fam1A.1 aminoacylation ribozyme variant] | 0.816 | 0.847 | 0.995 | 0.904 | 0.77 | 0.91
48 | CCAGACUGCAAGCAAUCGGUC [Fam1B.1 aminoacylation ribozyme variant] | 1.07 | 1.48 | 1.38 | 1.64 | 1.7 | 1.79
49 | CCAGACUUCAAGCAAUAGGUC [Fam1B.1 aminoacylation ribozyme variant] | 0.495 | 0.521 | 0.751 | 0.758 | 0.611 | 1.13
50 | CCAGACUUCAUGCAAUCGGUC [Fam1B.1 aminoacylation ribozyme variant] | 0.768 | 1.17 | 1.14 | 1.11 | 0.822 | 0.993
51 | CCGCACAUCAAGCAAUCGGUC [Fam1B.1 aminoacylation ribozyme variant] | 1.79 | 0.872 | 1.43 | 1.1 | 0.839 | 1.76
